According to patent publication EP0296592A2, “Aminopropanol derivatives of 3-(2-hydroxyphenyl)-1-propanone, process for their preparation and medicines containing these compounds” (Helopharm W. Petrik GmbH & Co.KG., priority 1987, dated 1988):

Experiments:
[1] = Acute toxicity LD50, mouse i.v.; conditions: in vivo, iv, Maus (i.v.), read-out: LD₅₀
From the text: (§1) Die hohe antiarrhythmische Wirksamkeit ist nicht begleitet von einer signifikanten Toxizitätssteigerung im Vergleich zu Propafenon. Dies ergibt sich aus einem Vergleich der LD₅₀-Werte bei Ratten und Mäusen, die in Tabelle (II) zusammengefaßt sind. Tabelle I

[2] = Acute toxicity LD50, rat i.v.; conditions: in vivo, iv, Ratte (i.v.), read-out: LD₅₀
From the text: as §1

In the case of `CCCNCC(O)COc1ccccc1C(=O)CCc1ccccc1` (centres unmarked) [A, Propafenon, reference compound], the LD50 [1] was 18 mg/kg and the LD50 [2] was 16 mg/kg.
